Results published in the supplement of paper PMC8728848.
This is one part of the list.

What was measured:
Test in all cases: glycan array binding signal (z-score within array); higher = stronger binding
Conditions in all cases: glycan notation: IUPAC condensed, linker removed; mutation: E321K
Gal(b1-2)Gal = target: Gal(b1-2)Gal
How it was run: (§1)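 Glycan array binding is given as a within-array Z-score, which can be read as non-binding when negative. The arrays, 3228 of them, came from the Consortium for Functional Glycomics database and were retained only where the protein sequence was available. Z-scores were averaged across arrays of the same protein sequence at different concentrations or buffers and across linkers.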

Gal(b1-3)Gal = target: Gal(b1-3)Gal
How it was run: as §1

Gal(b1-3)Gal(b1-4)GlcNAc = target: Gal(b1-3)Gal(b1-4)GlcNAc
How it was run: as §1

Gal(b1-3)GalNAc = target: Gal(b1-3)GalNAc
How it was run: as §1

[1] = target: Gal(b1-3)GalNAc(b1-3)Gal(a1-4)Gal(b1-4)Glc
How it was run: as §1

[2] = target: Gal(b1-3)GalNAc(b1-4)Gal(b1-4)Glc
How it was run: as §1

[3] = target: Gal(b1-3)GalNAc(b1-4)[Neu5Ac(a2-3)]Gal(b1-4)Glc
How it was run: as §1

Gal(b1-3)GlcNAc = target: Gal(b1-3)GlcNAc
How it was run: as §1

[4] = target: Gal(b1-3)GlcNAc(b1-2)Man(a1-3)[Gal(b1-3)GlcNAc(b1-2)Man(a1-6)]Man(b1-4)GlcNAc(b1-4)GlcNAc
How it was run: as §1

[5] = target: Gal(b1-3)GlcNAc(b1-3)Gal(b1-3)GlcNAc
How it was run: as §1

[6] = target: Gal(b1-3)GlcNAc(b1-3)Gal(b1-4)Glc
How it was run: as §1

[7] = target: Gal(b1-3)GlcNAc(b1-3)Gal(b1-4)GlcNAc
How it was run: as §1

[8] = target: Gal(b1-3)[Fuc(a1-4)]GlcNAc
How it was run: as §1

[9] = target: Gal(b1-3)[Fuc(a1-4)]GlcNAc(b1-3)Gal(b1-3)[Fuc(a1-4)]GlcNAc
How it was run: as §1

[10] = target: Gal(b1-3)[Fuc(a1-4)]GlcNAc(b1-3)Gal(b1-4)GlcNAc
How it was run: as §1

[11] = target: Gal(b1-3)[Fuc(a1-4)]GlcNAc(b1-3)Gal(b1-4)[Fuc(a1-3)]GlcNAc
How it was run: as §1

[12] = target: Gal(b1-3)[GlcNAc(b1-6)]GalNAc
How it was run: as §1

[13] = target: Gal(b1-3)[Neu5Ac(a2-6)]GalNAc
How it was run: as §1

[14] = target: Gal(b1-3)[Neu5Ac(a2-6)]GlcNAc(b1-6)Gal(b1-4)Glc
How it was run: as §1

[15] = target: Gal(b1-3)[Neu5Ac(b2-6)]GalNAc
How it was run: as §1

[16] = target: Gal(b1-4)GalNAc(a1-3)[Fuc(a1-2)]Gal(b1-4)GlcNAc
How it was run: as §1

[17] = target: Gal(b1-4)GalNAc(b1-3)[Fuc(a1-2)]Gal(b1-4)GlcNAc
How it was run: as §1

Gal(b1-4)Glc = target: Gal(b1-4)Glc
How it was run: as §1

Gal(b1-4)Glc6S = target: Gal(b1-4)Glc6S
How it was run: as §1

Gal(b1-4)GlcNAc = target: Gal(b1-4)GlcNAc
How it was run: as §1

[18] = target: Gal(b1-4)GlcNAc(a1-6)Gal(b1-4)GlcNAc
How it was run: as §1

[19] = target: Gal(b1-4)GlcNAc(b1-2)Man(a1-3)[Gal(b1-4)GlcNAc(b1-2)Man(a1-6)]Man(b1-4)GlcNAc(b1-4)GlcNAc
How it was run: as §1

[20] = target: Gal(b1-4)GlcNAc(b1-3)Gal(b1-3)GlcNAc
How it was run: as §1

[21] = target: Gal(b1-4)GlcNAc(b1-3)Gal(b1-4)Glc
How it was run: as §1

[22] = target: Gal(b1-4)GlcNAc(b1-3)Gal(b1-4)GlcNAc
How it was run: as §1

[23] = target: Gal(b1-4)GlcNAc(b1-3)Gal(b1-4)GlcNAc(b1-3)Gal(b1-4)GlcNAc
How it was run: as §1

[24] = target: Gal(b1-4)GlcNAc(b1-3)Gal(b1-4)[Fuc(a1-3)]GlcNAc(b1-3)Gal(b1-4)[Fuc(a1-3)]GlcNAc
How it was run: as §1

[25] = target: Gal(b1-4)GlcNAc(b1-3)GalNAc
How it was run: as §1

[26] = target: Gal(b1-4)GlcNAc(b1-3)[Gal(b1-4)GlcNAc(b1-6)]Gal(b1-4)GlcNAc
How it was run: as §1

[27] = target: Gal(b1-4)GlcNAc(b1-3)[GlcNAc(b1-6)]Gal(b1-4)GlcNAc
How it was run: as §1

[28] = target: Gal(b1-4)GlcNAc(b1-6)Gal(b1-4)GlcNAc
How it was run: as §1

[29] = target: Gal(b1-4)GlcNAc(b1-6)Gal(b1-4)GlcNAc(b1-6)GalNAc
How it was run: as §1

B1: Surfactant Protein D (Human); Neck + Carbohydrate Recognition Domain (NCRD) (Homo sapiens) (protein)
chain: MLLFLLSALVLLTQPLGYLEAEMKTYSHRTMPSACTLVMCSSVESGLPGRDRDGREGPRGEKGDPGLPGAAGQAGMPGQAGPVGPKGDNGSVGEPGPKGDTGPSGPPGPPGVPGPAGREGALGKQGNIGPQGKPGPKGEAGPKGEVGAPGMQGSAGARGLAGPKGERGVPGERGVPGNTGAAGSAGAMGPQGSPGARGPPGLKGDKGIPGDKGAKGESGLPDVASLRQQVEALQGQVQHLQAAFSQYKKVELFPNGQSVGEKIFKTAQFVKPFTEAQLLCTQAGGQLASPRSAAENAALQQLVVAKNEAAFLSMTDSKTEGKFTYPTGESLVYSNWAPGKPNDDGGSEDCVEIFTNGKWNDRACGEKRLVVCEF
glycan array binding signal (z-score) (Gal(b1-2)Gal): -1.06
glycan array binding signal (z-score) (Gal(b1-3)Gal): -0.54
glycan array binding signal (z-score) (Gal(b1-3)Gal(b1-4)GlcNAc): -0.429
glycan array binding signal (z-score) (Gal(b1-3)GalNAc): -0.535
glycan array binding signal (z-score) [1]: -0.839
glycan array binding signal (z-score) [2]: -0.012
glycan array binding signal (z-score) [3]: 1.01
glycan array binding signal (z-score) (Gal(b1-3)GlcNAc): -0.412
glycan array binding signal (z-score) [4]: -0.892
glycan array binding signal (z-score) [5]: -0.483
glycan array binding signal (z-score) [6]: -0.379
glycan array binding signal (z-score) [7]: -0.528
glycan array binding signal (z-score) [8]: 0.236
glycan array binding signal (z-score) [9]: 0.658
glycan array binding signal (z-score) [10]: 0.755
glycan array binding signal (z-score) [11]: -0.661
glycan array binding signal (z-score) [12]: -0.322
glycan array binding signal (z-score) [13]: -0.505
glycan array binding signal (z-score) [14]: -0.225
glycan array binding signal (z-score) [15]: -0.879
glycan array binding signal (z-score) [16]: -0.87
glycan array binding signal (z-score) [17]: -0.709
glycan array binding signal (z-score) (Gal(b1-4)Glc): -0.968
glycan array binding signal (z-score) (Gal(b1-4)Glc6S): 0.006
glycan array binding signal (z-score) (Gal(b1-4)GlcNAc): -0.591
glycan array binding signal (z-score) [18]: 1.84
glycan array binding signal (z-score) [19]: -0.964
glycan array binding signal (z-score) [20]: -0.871
glycan array binding signal (z-score) [21]: -0.541
glycan array binding signal (z-score) [22]: 0.273
glycan array binding signal (z-score) [23]: -0.186
glycan array binding signal (z-score) [24]: 0.182
glycan array binding signal (z-score) [25]: -0.758
glycan array binding signal (z-score) [26]: -1.08
glycan array binding signal (z-score) [27]: -0.379
glycan array binding signal (z-score) [28]: -0.37
glycan array binding signal (z-score) [29]: 0.372
